The values below are quoted from earlier work in patent US20010051618A1 (priority 2000, published 2001).

Molecules are shown by their SMILES.

One data set deals with kainate receptor. The conditions noted are these: rat; Narita et al. 1993; cited from earlier work.
The subject of data set [1] is ventromedial nucleus of hypothalamus (VMH). As to conditions: Yokawa et al. 1990; cited from earlier work.

For the molecule `NCCCC(=O)O` [GABA, γ-aminobutyric acid], the “inhibition of running activity induced by kainate” value in the data set on kainate receptor is listed as “not inhibited”. Further, the “inhibition of rat running activity caused by polymers” value in data set [1] is recorded as “could be inhibited”.
